Data on ten targets can be found in the supplement of paper PMC10849652.

Amino acid sequences for entries named in this document (tags omitted). A change or cut given only in a name is not applied to a line headed by its entry.
UniProt Q14978: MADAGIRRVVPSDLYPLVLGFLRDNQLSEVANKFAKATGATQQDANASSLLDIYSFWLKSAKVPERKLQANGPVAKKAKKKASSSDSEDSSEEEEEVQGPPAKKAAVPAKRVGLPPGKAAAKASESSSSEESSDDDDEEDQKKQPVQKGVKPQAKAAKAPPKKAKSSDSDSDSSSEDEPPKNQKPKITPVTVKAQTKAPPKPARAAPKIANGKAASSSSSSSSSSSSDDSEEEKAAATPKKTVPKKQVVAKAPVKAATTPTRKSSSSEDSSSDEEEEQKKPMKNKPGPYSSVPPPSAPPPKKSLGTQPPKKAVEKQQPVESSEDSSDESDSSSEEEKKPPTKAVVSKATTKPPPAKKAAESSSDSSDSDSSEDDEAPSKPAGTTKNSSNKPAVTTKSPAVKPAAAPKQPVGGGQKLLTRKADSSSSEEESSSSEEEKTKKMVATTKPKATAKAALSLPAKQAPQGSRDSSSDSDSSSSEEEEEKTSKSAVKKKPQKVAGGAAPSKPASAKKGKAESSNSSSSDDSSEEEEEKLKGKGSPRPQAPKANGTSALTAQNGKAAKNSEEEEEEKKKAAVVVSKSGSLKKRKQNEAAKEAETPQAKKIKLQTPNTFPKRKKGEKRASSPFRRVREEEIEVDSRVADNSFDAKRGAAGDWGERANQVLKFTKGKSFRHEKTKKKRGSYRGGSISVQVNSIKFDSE
UniProt Q15155: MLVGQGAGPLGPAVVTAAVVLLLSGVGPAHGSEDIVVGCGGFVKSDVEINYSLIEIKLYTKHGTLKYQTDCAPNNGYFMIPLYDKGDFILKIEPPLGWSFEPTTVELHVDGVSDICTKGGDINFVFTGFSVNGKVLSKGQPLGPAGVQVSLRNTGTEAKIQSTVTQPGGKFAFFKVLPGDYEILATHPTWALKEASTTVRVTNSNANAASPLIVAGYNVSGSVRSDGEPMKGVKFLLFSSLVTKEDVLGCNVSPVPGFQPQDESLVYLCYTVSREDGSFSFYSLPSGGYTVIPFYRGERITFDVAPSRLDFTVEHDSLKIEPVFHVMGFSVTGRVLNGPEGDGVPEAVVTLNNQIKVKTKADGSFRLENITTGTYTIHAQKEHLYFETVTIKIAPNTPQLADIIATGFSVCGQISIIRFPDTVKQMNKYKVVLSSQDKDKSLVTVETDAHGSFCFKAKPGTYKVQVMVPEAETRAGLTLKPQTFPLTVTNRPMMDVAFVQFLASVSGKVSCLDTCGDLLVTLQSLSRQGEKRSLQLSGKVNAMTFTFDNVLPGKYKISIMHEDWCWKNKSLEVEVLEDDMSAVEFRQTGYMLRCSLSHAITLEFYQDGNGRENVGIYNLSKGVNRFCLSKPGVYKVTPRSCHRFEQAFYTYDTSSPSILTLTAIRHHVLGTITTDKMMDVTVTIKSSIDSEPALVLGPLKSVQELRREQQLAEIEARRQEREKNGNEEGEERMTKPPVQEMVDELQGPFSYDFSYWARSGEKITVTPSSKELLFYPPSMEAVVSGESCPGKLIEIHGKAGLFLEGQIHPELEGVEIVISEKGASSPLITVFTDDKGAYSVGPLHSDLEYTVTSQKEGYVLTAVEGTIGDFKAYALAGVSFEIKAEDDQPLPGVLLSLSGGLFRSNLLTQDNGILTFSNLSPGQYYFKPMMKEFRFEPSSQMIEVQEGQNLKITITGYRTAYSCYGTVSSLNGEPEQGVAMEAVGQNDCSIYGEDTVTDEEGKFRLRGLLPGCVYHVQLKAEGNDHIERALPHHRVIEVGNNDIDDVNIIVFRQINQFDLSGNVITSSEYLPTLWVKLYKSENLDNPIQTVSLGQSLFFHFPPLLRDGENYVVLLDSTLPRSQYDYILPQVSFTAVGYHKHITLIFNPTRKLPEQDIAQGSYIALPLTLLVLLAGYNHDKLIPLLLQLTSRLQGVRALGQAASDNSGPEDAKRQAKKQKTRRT
UniProt P04629: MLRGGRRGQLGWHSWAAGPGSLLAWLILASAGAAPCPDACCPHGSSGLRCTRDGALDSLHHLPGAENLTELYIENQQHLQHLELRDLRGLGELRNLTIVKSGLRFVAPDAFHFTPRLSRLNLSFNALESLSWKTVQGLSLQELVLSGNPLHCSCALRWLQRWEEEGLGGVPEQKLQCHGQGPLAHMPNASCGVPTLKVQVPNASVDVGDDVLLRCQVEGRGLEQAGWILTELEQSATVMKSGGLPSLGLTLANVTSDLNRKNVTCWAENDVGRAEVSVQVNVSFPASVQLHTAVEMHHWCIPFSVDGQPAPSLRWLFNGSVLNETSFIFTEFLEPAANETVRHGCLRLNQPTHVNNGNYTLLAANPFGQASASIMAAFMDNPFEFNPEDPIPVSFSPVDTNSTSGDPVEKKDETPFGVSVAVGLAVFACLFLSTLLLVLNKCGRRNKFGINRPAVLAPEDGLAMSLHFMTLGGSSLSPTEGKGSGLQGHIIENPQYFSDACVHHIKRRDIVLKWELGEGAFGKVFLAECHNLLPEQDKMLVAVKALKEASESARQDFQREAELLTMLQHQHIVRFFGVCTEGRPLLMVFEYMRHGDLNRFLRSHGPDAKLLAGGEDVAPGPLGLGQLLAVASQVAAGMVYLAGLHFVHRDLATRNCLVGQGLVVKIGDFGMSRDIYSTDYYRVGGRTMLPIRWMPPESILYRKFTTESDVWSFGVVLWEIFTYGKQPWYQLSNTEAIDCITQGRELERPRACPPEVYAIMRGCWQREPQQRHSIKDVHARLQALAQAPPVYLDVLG
UniProt P48552: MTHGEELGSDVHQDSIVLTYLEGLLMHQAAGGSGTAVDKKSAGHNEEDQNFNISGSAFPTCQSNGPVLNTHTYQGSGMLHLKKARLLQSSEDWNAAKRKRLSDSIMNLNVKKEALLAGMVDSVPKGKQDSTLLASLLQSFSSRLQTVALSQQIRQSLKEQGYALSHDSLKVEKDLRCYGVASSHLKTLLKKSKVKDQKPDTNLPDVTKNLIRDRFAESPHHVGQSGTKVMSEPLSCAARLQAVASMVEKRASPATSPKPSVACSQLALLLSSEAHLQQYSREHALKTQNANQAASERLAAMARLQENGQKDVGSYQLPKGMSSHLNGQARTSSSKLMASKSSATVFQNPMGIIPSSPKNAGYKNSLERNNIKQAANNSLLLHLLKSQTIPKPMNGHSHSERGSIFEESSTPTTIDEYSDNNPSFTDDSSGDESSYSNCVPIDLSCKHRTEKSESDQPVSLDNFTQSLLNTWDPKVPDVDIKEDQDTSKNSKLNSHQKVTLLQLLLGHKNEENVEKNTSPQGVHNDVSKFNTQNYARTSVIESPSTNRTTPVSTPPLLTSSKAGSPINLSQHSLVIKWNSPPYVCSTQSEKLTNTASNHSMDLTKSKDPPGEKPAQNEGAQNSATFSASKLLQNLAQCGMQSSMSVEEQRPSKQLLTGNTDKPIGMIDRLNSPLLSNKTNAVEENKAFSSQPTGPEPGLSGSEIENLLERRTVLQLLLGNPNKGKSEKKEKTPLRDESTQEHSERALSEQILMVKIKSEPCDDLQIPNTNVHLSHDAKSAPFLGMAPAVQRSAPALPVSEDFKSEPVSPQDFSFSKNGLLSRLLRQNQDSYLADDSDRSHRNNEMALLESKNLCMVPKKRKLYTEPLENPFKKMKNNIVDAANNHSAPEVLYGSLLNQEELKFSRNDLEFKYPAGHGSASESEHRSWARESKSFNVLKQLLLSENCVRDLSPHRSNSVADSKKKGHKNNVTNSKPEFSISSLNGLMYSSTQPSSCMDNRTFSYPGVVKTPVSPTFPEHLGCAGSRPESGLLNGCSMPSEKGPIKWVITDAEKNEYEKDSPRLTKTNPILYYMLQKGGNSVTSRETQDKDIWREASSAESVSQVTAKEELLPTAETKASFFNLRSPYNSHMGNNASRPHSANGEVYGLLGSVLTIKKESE
UniProt Q9UHK0: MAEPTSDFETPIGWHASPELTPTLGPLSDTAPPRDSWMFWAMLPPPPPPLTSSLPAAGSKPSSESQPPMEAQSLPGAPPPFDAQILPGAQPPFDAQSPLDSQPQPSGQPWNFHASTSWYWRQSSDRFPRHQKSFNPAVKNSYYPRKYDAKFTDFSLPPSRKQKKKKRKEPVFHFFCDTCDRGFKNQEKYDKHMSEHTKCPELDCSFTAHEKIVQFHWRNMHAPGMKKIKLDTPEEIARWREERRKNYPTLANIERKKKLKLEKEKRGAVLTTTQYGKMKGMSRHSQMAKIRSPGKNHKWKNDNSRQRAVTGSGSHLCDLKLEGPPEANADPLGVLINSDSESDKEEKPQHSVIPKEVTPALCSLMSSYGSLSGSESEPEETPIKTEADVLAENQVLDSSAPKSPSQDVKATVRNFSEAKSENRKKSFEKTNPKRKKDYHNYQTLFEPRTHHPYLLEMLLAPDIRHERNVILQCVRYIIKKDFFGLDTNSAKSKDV
UniProt P69849: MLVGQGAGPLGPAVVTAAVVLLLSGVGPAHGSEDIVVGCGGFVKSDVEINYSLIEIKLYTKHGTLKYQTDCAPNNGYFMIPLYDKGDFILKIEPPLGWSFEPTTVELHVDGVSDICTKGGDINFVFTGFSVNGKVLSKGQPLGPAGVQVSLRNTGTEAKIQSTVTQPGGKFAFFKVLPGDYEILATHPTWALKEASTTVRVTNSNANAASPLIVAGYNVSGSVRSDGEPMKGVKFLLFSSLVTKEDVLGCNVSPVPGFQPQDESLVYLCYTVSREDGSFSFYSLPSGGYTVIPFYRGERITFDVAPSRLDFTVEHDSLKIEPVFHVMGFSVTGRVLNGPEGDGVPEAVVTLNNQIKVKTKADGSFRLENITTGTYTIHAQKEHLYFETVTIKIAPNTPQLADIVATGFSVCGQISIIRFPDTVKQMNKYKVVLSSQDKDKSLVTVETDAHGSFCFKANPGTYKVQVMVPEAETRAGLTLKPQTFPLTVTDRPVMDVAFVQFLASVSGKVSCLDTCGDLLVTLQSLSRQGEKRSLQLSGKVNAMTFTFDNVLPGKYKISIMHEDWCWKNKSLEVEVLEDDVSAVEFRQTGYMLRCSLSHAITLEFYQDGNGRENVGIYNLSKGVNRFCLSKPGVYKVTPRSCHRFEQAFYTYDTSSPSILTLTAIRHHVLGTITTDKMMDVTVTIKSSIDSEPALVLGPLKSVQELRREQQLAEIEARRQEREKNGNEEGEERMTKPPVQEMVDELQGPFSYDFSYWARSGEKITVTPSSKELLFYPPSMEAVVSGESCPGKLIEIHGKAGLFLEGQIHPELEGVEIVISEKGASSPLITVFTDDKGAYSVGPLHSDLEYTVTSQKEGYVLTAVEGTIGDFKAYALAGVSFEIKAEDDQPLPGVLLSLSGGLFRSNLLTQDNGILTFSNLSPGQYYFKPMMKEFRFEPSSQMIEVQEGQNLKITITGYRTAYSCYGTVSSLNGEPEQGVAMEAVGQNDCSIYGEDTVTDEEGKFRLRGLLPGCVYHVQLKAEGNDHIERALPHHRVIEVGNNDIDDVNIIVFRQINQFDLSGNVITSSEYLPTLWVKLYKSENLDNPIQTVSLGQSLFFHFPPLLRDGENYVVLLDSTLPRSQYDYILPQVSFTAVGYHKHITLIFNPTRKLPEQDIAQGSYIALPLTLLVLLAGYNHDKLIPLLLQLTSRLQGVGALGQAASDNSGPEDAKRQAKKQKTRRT
UniProt Q9Y5A7: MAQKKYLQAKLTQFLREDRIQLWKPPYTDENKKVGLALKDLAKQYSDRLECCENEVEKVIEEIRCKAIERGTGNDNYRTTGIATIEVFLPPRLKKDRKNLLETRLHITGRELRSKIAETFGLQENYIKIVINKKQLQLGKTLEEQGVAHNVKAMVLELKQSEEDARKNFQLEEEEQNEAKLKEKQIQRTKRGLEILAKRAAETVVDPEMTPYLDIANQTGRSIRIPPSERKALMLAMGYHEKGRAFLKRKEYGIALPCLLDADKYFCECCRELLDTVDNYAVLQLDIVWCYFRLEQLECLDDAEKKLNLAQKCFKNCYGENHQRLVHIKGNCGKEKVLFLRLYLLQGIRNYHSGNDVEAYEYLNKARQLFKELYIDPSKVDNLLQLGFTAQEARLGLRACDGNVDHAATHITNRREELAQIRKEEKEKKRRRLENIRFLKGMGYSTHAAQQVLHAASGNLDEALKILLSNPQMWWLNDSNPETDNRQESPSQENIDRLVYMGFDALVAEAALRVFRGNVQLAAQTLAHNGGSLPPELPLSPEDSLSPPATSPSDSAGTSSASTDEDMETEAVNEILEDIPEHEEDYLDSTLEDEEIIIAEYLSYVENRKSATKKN

Assay in all cases: log2 fold change, soluble protein after heating vs DMSO (PISA); higher = thermal stabilisation; K562 lysate, 10 uM; active = over 0.2 and 3.5 SD of the protein, either way, in both replicates (recomputed)
Compound in test [1]: CCCS(=O)(=O)Nc1ccc(F)c(C(=O)c2c[nH]c3ncc(Cl)cc23)c1F
Summed up: (§1)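 K562 pellets were dounce-homogenised in PBS pH 7.4 containing 1 mM MgCl2, and the crude extract, at 1 mg/mL protein, was exposed to 10 μM compound for 30 min. Aliquots were heated for 3 min across 48°C-58°C, pooled, brought to 0.5% NP-40 at 4°C and spun at 21,000xg for 90 min, with the supernatant taken as soluble protein. TMTpro 16plex LC-MS/MS with equalised channel sums quantified that protein. Values are log-two fold changes in thermal stability relative to solvent controls, taken from duplicates.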

Compound in another test: CCN(CCCOc1ccc2c(Nc3cc(CC(=O)Nc4cccc(F)c4)[nH]n3)ncnc2c1)CCOP(=O)(O)O [barasertib]
Summed up:
as §1

Compound in test [2]: CC[C@@H]1C(=O)N(C)c2cnc(Nc3ccc(C(=O)NC4CCN(C)CC4)cc3OC)nc2N1C1CCCC1
Summed up: as §1

Compound in the next test: CC[C@@H]1C(=O)N(C)c2cnc(Nc3ccc(C(=O)N[C@H]4CC[C@H](N5CCN(CC6CC6)CC5)CC4)cc3OC)nc2N1C(C)C [volasertib]
In short, it runs like this:
as §1

Compound in test [3]: CCn1c(C(=O)N(C2CC2)C2CC2)cc2c3c(ncn3C)c(Nc3cc(C)n(C)n3)nc21
In short, it runs like this:
as §1

Compound in test [4]: CCn1cc(-c2ccnc3[nH]c(-c4cccc(CN(C)C)c4)cc23)c(-c2ccc(NC(=O)N(C)C)cc2)n1
Summed up:
as §1

Compound in test [5]: CN1CCC(CNc2ccc3ncc(-c4cccc(OC(F)(F)F)c4)n3n2)CC1
In short, it runs like this:
as §1

Compound in a further test: CN1CCN(CCOc2cc(OC3CCOCC3)c3c(Nc4c(Cl)ccc5c4OCO5)ncnc3c2)CC1 [saracatinib]
Summed up:
as §1

Compound in the next test: CN1CCN(c2nc(C3=C(c4c[nH]c5ccccc45)C(=O)NC3=O)c3ccccc3n2)CC1 [sotrastaurin]
Summed up: as §1

Compound in the next test: CN1CC[C@H](c2c(O)cc(O)c3c(=O)cc(-c4ccccc4Cl)oc23)[C@H](O)C1 [alvocidib]
Summed up: as §1

Compound in a further test: CN1CCc2c(c3ccccc3n2Cc2ccc(C(=O)NO)cc2)C1 [Tubastatin A]
Summed up:
as §1

Compound in test [6]: CNC(=O)C1=CC=CC=C1NC2=NC(=NC=C2Cl)NC3=C(C=C(C=C3)N4CCOCC4)OC
Summed up:
as §1

Compound in test [7]: CNc1nc(-c2ccc3c(N)n[nH]c3c2)cc(N2C[C@@H](C(=O)NC3CCCCC3)CC[C@H]2C)n1
In short, it runs like this: as §1

Compound in another test: COC(=O)N[C@@H](C)CNc1nccc(-c2cn(C(C)C)nc2-c2cc(Cl)cc(NS(C)(=O)=O)c2F)n1 [encorafenib]
In short, it runs like this:
as §1

Compound in test [8]: COC(=O)[C@H](CCSC)NC(=O)C1=C(C=C(C=C1)NC[C@H](CS)N)C2=CC=CC=C2
Summed up:
as §1

Compound in test [9]: COc1cc2nc(-c3cc(F)ccc3O)nc(N[C@@H]3CNC[C@H]3C(C)(C)O)c2cc1OC
In short, it runs like this:
as §1

Compound in the next test: COc1cc(Nc2ncc3c(n2)-c2ccc(Cl)cc2C(c2c(F)cccc2OC)=NC3)ccc1C(=O)O [alisertib]
Summed up: as §1

Compound in a further test: COc1cc2ncnc(Nc3ccc(F)c(Cl)c3)c2cc1OCCCN1CCOCC1 [gefitinib]
In short, it runs like this: as §1

Compound in the next test: CCCS(=O)(=O)Nc1ccc(F)c(C(=O)c2c[nH]c3ncc(-c4ccc(Cl)cc4)cc23)c1F [vemurafenib]
Summed up: as §1

Compound in the next test: CNC(=O)c1ccc(Nc2ncc(C(F)(F)F)c(NCc3nccnc3N(C)S(C)(=O)=O)n2)cc1 [defactinib]
Summed up:
as §1

This is one part of the list.

NOLC1 isoform 3 (UniProt Q14978): the log2 fold change in test [1] was inactive: 0.019; with barasertib, inactive: -0.056; in test [2] it was inactive: 0.038; with volasertib it was inactive: 0.087; in test [3], inactive: -0.137; in test [4], inactive: 0.115. For the same target, the log2 fold change in test [5] was inactive: -0.127; with saracatinib, inactive: 0.197; with sotrastaurin, inactive: 0.099; with alvocidib, inactive: 0.067; with Tubastatin A it was inactive: 0.06; in [6], inactive: 0.301. Further, the log2 fold change is inactive: -0.07 in test [7], inactive: -0.158 in the test with encorafenib, inactive: -0.119 in test [8] and inactive: 0.003 in [9].
Take NOMO1 (UniProt Q15155): the log2 fold change was inactive: 0.072 in test [1]; inactive: -0.026 with barasertib; inactive: -0.026 in [2]; inactive: 0.037 with volasertib; inactive: 0.009 in [3]; inactive: 0.341 in test [4]. For the same target, the log2 fold change in [5] is inactive: -0.224; with saracatinib it was inactive: 0.046; with sotrastaurin, inactive: -0.011; with alvocidib it was inactive: 0.21; with Tubastatin A it was inactive: -0.079; in test [6], inactive: -0.129. Further, the log2 fold change in [7] was inactive: -0.05; with encorafenib, inactive: -0.191; in test [8], inactive: -0.028; in the test with alisertib it was inactive: 0.056; in [9], inactive: -0.078; with gefitinib, inactive: 0.08.
For the target NOCT (UniProt Q9UK39), the log2 fold change was inactive: -0.04 in test [1]; inactive: 0 in [2]; inactive: 0.02 with volasertib; inactive: 0.004 in test [3]; inactive: -0.103 in the test with saracatinib; inactive: -0.073 in the test with sotrastaurin. Also, the log2 fold change was inactive: 0.012 with Tubastatin A; inactive: 0.159 in test [6]; inactive: 0.042 in test [7]; inactive: 0.046 in the test with encorafenib; inactive: -0.01 in test [8]; inactive: 0.009 with alisertib. The log2 fold change is inactive: -0.144 in test [9] and inactive: -0.088 with gefitinib.
For NTRK1 (UniProt P04629), the log2 fold change in the test with vemurafenib was inactive: 0.121; in test [3] it was inactive: 0.014; in test [4], inactive: -0.177; in [5], inactive: 0.111; in the test with saracatinib it was inactive: 0.064; with sotrastaurin it was inactive: -0.015. In addition, the log2 fold change with alvocidib is inactive: -0.387; with Tubastatin A, inactive: 0.018; in the test with defactinib, inactive: -0.019; in test [7] it was inactive: -0.088; with encorafenib it was inactive: 0; in [8], inactive: -0.2.
With NRIP1 (UniProt P48552), the log2 fold change is inactive: 0.024 in [1]; inactive: 0.076 with barasertib; inactive: -0.055 in the test with volasertib; inactive: -0.124 in test [3]; active: -0.651 in test [4]; inactive: 0.17 in test [5]. In addition, the log2 fold change in the test with saracatinib was inactive: -0.071; with sotrastaurin it was inactive: -0.074; in the test with alvocidib, inactive: -0.145; in the test with Tubastatin A it was inactive: 0.001; in test [6], inactive: -0.096; in test [7] it was inactive: 0.291. Besides, the log2 fold change with alisertib was inactive: -0.21; in test [9], inactive: 0.04; in the test with gefitinib, inactive: -0.011.
In the case of NUFIP1 (UniProt Q9UHK0), the log2 fold change with barasertib was inactive: -0.109; in test [2], inactive: 0.003; in [3], inactive: -0.097; in test [4], inactive: 0.041; in test [5], inactive: -0.033; with saracatinib, inactive: 0.002. In addition, the log2 fold change with sotrastaurin was inactive: -0.002; with alvocidib, inactive: 0.033; with Tubastatin A it was inactive: -0.019; in [7], inactive: -0.068; with encorafenib, inactive: -0.011; in [8], inactive: 0.028. Also, the log2 fold change is inactive: -0.077 with alisertib and inactive: 0.243 with gefitinib.
In the case of NOMO3 (UniProt P69849), the log2 fold change is inactive: 0.032 in test [1]; inactive: -0.015 with volasertib; inactive: -0.071 in [3]; inactive: -0.039 with saracatinib; inactive: 0.006 with sotrastaurin; inactive: 0.044 with Tubastatin A. For the same target, the log2 fold change is inactive: -0.209 in test [6]; inactive: -0.027 in test [7]; inactive: -0.015 with alisertib; inactive: 0.137 in [9]; inactive: 0.034 with gefitinib.
Turning to NUB1 isoform 2 (UniProt Q9Y5A7), in the test with sotrastaurin, the log2 fold change was inactive: -0.003.
For the target NR2F6 (UniProt P10588), the log2 fold change is inactive: 0.099 in [2]; inactive: -0.024 in test [3]; inactive: -0.123 in the test with saracatinib; inactive: 0.002 with sotrastaurin; inactive: 0.007 in the test with Tubastatin A; inactive: -0.159 in test [7]. Besides, the log2 fold change in the test with encorafenib was inactive: 0.208; in test [8], inactive: -0.223; with alisertib, inactive: -0.009; with gefitinib, inactive: -0.096.
On to NME3 (UniProt H3BPR2), for which the log2 fold change is inactive: 0.141 in test [1], inactive: 0 in the test with volasertib and inactive: 0.185 in [9].
